Test results published in publication doi:10.1101/2020.05.31.126581.
No constants are given. Whether binding was seen depends on the method and setting.

Amino acid sequences for entries named in this document (tags omitted). Residues count along the entry.
UniProt P04792, residues 93-205: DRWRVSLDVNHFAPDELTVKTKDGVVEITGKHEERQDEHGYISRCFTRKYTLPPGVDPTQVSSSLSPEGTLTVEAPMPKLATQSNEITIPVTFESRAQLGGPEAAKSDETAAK

Target: T1, scavenger receptor AI (human (endogenous in THP-1)) (UniProt P21757)
T1 sequence: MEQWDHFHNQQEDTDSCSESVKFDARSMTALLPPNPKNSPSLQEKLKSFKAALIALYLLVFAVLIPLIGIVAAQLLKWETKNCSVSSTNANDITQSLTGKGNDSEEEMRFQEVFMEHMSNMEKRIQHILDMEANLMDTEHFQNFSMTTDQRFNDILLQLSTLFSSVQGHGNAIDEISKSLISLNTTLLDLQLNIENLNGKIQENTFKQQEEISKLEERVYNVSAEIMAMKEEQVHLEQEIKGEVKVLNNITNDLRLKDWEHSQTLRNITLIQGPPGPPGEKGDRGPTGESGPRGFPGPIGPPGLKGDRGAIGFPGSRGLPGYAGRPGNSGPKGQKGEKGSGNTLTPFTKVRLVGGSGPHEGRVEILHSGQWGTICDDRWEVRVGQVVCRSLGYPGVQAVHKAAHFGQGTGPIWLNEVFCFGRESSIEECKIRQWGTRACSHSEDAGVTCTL
Experiment: ELISA

binding: no binding (tested: 1 μg/ml)
Substance: C-terminal, biologically inactive (rC1) fragment of HSP27 (AA93-205) (from UniProt P04792 93-205) (domain or fragment)
